The list shows a part of the results. Residues, ends and D or L forms follow the SMILES beside them. *: point of attachment. Cbz = O=C(OCc1ccccc1)*
Columns and labels:
Test in all cases: log2 fold change, soluble protein after heating vs DMSO (PISA); higher = thermal stabilisation; K562 cells, 10 uM, 30 min; active = over 0.2 and 3.5 SD of the protein, either way, in both replicates (recomputed)
erlotinib = compound: C#Cc1cccc(Nc2ncnc3cc(OCCOC)c(OCCOC)cc23)c1 [erlotinib]
Procedure, shortened: (§1)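 Aliquots of K562 cells (2×10^6 cells/mL) treated with 10 μM compound for 30 min were heated for 3 min over 48°C-58°C. After pooling and extraction in PBS with 0.5% NP-40 at 4°C, soluble protein from a 21,000xg, 90 min spin was quantified by TMTpro 16plex LC-MS/MS with channel sums equalised. Thermal stability is expressed against control samples, from duplicates, as a log2 fold change.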

Sequences of proteins named here, by UniProt entry; tags and fusion partners are left off. A change or cut given only in a name is not applied to a line headed by its entry.
UniProt P04183: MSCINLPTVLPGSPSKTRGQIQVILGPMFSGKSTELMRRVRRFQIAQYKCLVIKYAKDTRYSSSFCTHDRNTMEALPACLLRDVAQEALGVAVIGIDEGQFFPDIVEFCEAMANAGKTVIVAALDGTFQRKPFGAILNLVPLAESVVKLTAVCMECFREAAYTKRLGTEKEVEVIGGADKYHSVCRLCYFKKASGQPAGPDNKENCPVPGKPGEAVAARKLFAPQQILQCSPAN
UniProt Q9NZ01: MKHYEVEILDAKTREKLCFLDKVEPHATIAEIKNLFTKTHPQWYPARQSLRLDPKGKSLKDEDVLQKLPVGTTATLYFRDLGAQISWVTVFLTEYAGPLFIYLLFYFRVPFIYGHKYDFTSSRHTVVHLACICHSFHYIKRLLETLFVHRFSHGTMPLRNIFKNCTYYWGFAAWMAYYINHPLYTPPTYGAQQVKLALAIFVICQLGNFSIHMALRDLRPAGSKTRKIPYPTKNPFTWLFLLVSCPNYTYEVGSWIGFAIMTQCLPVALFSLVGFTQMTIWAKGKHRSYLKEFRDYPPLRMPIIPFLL
UniProt Q9BSF4: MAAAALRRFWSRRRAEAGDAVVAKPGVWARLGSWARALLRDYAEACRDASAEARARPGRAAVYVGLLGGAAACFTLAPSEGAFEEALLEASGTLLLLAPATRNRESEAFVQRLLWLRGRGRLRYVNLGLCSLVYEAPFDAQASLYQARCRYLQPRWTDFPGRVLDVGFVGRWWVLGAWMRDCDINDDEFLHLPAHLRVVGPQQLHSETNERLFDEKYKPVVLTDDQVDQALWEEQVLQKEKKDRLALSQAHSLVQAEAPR
UniProt Q12800: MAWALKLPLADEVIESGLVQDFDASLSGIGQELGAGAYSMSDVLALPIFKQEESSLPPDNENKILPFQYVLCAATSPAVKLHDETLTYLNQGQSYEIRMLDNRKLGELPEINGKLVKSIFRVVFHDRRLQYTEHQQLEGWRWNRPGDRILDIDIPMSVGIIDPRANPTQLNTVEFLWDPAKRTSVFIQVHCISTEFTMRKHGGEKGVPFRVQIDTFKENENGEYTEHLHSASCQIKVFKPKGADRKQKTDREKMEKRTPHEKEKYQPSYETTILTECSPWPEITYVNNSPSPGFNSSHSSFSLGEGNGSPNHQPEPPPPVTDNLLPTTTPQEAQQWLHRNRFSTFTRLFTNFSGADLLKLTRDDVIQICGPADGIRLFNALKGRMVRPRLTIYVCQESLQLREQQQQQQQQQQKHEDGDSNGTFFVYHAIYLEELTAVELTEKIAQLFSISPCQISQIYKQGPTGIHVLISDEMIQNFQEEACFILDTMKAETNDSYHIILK
UniProt Q9UDY2: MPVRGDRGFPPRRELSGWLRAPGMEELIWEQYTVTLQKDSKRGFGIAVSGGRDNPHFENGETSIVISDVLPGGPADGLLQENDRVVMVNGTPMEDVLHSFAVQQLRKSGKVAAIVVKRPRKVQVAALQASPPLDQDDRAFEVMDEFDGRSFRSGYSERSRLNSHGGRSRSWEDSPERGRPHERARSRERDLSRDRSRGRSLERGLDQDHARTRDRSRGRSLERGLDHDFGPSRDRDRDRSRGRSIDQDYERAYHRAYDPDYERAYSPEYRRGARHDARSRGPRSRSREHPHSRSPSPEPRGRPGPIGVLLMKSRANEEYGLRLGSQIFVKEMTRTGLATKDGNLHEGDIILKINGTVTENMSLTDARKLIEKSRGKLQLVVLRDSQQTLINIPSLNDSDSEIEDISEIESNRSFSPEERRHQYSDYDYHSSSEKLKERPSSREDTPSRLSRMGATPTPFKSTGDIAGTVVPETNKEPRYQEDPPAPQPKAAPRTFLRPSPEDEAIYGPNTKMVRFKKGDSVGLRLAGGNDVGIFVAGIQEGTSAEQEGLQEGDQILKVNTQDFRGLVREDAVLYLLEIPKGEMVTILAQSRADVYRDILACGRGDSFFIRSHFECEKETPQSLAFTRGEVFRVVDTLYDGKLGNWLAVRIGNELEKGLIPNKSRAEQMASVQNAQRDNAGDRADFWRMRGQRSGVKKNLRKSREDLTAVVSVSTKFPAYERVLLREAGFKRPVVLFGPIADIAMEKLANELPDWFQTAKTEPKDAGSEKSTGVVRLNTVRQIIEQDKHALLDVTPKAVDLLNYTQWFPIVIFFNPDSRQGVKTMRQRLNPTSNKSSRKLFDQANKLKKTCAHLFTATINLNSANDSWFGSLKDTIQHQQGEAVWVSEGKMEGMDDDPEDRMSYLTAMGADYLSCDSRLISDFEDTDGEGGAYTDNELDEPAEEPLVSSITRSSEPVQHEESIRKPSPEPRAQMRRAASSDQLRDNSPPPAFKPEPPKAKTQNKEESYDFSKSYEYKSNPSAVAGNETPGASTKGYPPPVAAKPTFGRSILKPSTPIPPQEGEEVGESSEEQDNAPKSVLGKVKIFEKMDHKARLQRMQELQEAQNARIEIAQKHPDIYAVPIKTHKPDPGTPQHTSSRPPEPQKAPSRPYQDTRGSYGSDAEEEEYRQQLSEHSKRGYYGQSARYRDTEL
UniProt Q96BZ9: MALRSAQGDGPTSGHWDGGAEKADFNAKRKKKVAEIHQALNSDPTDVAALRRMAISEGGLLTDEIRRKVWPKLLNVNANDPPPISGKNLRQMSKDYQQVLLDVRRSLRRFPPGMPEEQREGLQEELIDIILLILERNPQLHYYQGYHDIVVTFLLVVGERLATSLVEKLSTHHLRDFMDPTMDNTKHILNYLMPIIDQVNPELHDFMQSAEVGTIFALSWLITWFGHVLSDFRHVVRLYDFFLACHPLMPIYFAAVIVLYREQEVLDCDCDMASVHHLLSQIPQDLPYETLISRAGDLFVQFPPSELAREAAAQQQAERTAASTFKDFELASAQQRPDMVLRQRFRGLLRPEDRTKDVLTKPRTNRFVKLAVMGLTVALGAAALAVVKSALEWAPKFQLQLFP
UniProt P62072: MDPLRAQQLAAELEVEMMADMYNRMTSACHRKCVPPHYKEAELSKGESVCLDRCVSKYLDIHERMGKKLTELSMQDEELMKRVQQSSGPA
UniProt Q9UP52: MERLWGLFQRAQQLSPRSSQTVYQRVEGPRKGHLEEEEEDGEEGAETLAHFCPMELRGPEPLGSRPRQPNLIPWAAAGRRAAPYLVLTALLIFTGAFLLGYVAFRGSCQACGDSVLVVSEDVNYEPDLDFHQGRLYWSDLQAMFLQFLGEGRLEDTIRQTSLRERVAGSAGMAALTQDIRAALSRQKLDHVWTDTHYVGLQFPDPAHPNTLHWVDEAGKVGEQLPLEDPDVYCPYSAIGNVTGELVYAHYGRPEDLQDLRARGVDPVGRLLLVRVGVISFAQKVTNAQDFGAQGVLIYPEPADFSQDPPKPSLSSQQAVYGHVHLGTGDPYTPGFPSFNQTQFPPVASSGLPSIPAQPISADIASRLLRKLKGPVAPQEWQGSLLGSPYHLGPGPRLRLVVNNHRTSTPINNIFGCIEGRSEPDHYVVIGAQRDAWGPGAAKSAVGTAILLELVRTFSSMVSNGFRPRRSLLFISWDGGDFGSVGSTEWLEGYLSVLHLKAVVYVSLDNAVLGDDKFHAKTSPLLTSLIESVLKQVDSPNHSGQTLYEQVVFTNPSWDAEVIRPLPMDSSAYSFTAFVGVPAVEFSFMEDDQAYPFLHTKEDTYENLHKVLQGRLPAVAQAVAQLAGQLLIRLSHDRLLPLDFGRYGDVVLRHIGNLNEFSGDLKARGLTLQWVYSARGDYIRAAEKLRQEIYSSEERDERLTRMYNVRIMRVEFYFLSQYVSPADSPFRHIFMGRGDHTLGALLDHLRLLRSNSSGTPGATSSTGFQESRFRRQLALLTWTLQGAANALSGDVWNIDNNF
UniProt Q9BVW5: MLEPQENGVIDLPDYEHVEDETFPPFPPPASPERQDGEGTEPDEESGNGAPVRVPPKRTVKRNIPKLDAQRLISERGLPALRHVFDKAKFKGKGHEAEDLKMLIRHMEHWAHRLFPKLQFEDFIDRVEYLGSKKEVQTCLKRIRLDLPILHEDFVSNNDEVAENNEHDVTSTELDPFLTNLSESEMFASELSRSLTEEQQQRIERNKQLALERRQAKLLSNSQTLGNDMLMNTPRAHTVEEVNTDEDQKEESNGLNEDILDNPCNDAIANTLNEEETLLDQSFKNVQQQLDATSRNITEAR
UniProt Q9HA65: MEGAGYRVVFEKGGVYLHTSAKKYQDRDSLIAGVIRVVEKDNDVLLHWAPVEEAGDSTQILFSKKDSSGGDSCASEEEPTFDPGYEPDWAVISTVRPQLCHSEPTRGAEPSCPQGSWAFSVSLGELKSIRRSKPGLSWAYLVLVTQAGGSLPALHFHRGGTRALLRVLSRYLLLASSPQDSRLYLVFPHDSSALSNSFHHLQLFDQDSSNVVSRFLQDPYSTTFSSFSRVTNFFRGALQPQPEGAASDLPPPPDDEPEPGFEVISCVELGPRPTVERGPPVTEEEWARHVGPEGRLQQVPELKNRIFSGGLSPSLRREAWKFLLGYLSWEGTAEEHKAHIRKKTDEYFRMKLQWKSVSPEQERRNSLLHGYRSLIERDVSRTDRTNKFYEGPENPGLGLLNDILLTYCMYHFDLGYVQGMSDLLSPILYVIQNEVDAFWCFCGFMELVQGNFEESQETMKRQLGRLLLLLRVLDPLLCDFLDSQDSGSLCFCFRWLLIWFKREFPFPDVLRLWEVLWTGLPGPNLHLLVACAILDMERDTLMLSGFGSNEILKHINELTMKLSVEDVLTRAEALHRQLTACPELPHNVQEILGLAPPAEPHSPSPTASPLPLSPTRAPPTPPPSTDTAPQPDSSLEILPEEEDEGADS
UniProt Q96CG3: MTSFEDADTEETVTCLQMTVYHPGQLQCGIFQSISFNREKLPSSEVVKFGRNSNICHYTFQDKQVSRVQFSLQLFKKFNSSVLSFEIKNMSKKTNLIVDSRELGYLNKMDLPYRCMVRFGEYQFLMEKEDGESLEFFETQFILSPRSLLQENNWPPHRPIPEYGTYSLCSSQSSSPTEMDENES
UniProt Q01664: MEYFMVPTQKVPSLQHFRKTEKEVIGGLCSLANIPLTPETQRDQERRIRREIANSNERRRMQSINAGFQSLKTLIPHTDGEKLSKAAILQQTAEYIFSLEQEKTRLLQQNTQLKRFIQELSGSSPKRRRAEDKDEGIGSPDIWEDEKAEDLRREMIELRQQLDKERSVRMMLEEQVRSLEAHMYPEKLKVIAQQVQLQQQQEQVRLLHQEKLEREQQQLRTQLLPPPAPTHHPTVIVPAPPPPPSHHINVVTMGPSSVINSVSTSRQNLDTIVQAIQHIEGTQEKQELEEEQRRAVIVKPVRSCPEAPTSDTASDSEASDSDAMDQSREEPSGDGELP
UniProt Q5TEJ8: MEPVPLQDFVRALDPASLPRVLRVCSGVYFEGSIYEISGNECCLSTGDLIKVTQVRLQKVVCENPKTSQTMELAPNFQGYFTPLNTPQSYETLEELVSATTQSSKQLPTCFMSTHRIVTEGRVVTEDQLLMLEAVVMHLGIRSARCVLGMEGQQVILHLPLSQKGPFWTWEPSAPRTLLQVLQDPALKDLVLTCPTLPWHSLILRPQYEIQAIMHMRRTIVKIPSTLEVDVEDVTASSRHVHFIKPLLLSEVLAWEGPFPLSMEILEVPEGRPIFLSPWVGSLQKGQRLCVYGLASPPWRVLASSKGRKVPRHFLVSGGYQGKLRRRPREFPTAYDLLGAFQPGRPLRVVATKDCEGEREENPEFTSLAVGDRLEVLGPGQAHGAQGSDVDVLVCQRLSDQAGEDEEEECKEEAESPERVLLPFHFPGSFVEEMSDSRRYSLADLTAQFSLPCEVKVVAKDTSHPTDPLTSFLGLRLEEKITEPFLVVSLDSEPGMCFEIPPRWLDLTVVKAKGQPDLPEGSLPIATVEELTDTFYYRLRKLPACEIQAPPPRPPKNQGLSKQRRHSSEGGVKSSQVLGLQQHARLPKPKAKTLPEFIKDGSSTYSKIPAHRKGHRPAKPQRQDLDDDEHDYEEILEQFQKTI
UniProt Q9NUW8, whole entry, looked up: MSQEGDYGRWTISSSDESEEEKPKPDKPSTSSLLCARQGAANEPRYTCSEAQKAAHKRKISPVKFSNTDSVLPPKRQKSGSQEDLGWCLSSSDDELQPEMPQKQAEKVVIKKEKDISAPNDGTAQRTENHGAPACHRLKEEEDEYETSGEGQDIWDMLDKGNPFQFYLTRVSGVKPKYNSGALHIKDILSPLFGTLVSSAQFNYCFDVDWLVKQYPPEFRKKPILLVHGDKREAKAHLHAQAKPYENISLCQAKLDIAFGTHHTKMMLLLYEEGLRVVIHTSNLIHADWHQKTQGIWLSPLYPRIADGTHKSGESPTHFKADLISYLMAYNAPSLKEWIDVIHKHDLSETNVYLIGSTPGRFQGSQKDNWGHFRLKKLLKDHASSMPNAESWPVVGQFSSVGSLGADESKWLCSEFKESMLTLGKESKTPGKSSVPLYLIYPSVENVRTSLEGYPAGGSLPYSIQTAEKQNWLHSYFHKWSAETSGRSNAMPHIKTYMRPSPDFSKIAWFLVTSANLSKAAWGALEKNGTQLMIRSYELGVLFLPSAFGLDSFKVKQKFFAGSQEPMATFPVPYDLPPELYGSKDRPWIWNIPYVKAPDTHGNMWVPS

[1] = compound: C/C(=N\NC(=O)C1=CC(=CC=C1)S(=O)(=O)N2CCOCC2)/C3=C(C=CC(=C3)Cl)O
Procedure, shortened: as §1

[2] = compound: C1=CC(=C(C=C1Cl)C2=NC3=NC=CN=C3C(=N2)NC4=CC=NC=C4)F
Procedure, shortened: as §1

[3] = compound: C1=CC(=CC=C1C2=NC3=C(N2)C=C(C=C3)C(=O)N)OC4=CC=C(C=C4)Cl
Procedure, shortened: as §1

[4] = compound: C1=CC2=C(C=CC(=C2)/C=C\3/C(=O)NC(=NCC4=CC=CS4)S3)N=C1
Procedure, shortened: as §1

[5] = compound: C1=CC2=NC=CN=C2C=C1/C=C/3\C(=O)NC(=O)S3
Procedure, shortened: as §1

[6] = compound: C1=CC=C(C=C1)C2=NC(=C(N2)C3=CC=NC=C3)C4=CC(=C(C=C4)Cl)O
Procedure, shortened: as §1

[7] = compound: C1=CC=C2C(=C1)C3=NNC4=CC=CC(=C43)C2=O
Procedure, shortened: as §1

[8] = compound: C1CCN(C1)C(=O)NC2=CC=CC(=C2)NC3=NC=C(C(=N3)NCCC4=CN=CN4)Br
Procedure, shortened: as §1

[9] = compound: C1CN(CCC1(CC2=CC=C(C=C2)Cl)N)C3=NC=NC4=C3C=CN4
Procedure, shortened: as §1

IRAK-1-4 Inhibitor I = compound: C1COCCN1CCN2C3=CC=CC=C3N=C2NC(=O)C4=CC(=CC=C4)[N+](=O)[O-] [IRAK-1-4 Inhibitor I]
Procedure, shortened: as §1

ibrutinib = compound: C=CC(=O)N1CCC[C@@H](n2nc(-c3ccc(Oc4ccccc4)cc3)c3c(N)ncnc32)C1 [ibrutinib]
Procedure, shortened: as §1

[10] = compound: CC(=O)c1cnc2ccc(-c3cc(Cl)c(O)c(Cl)c3)nc2c1N[C@H]1CC[C@H](CN(C)C)CC1
Procedure, shortened: as §1

ralimetinib = compound: CC(C)(C)Cn1c(N)nc2ccc(-c3[nH]c(C(C)(C)C)nc3-c3ccc(F)cc3)nc21 [ralimetinib]
Procedure, shortened: as §1

[11] = compound: CC(C)(O)CC(=O)NCCn1ccc2ncnc(Nc3ccc(Oc4cccc(C(F)(F)F)c4)c(Cl)c3)c21
Procedure, shortened: as §1

[12] = compound: CC(C)C1=C2N=C(C=C(N2N=C1)NCC3=CC=CC=C3)NCCCCCCN
Procedure, shortened: as §1

[13] = compound: CC(C)C[C@@H](C=O)NC(=O)[C@H](CC(C)C)NC(=O)[C@H](CC(C)C)NC(=O)OCc1ccccc1
Procedure, shortened: as §1

pinometostat = compound: CC(C)N(C[C@H]1O[C@@H](n2cnc3c(N)ncnc32)[C@H](O)[C@@H]1O)[C@H]1C[C@@H](CCc2nc3cc(C(C)(C)C)ccc3[nH]2)C1 [pinometostat]
Procedure, shortened: as §1

[14] = compound: CC1=C(C2=C(C=C1)C(=O)C3=CC=CC=C3N2CCCN)C
Procedure, shortened: as §1

[15] = compound: CC1=C(C(CC(=O)N1)C2=CC=C(C=C2)C(F)(F)F)C(=O)NC3=C(C=C4C(=C3)C=NN4)F
Procedure, shortened: as §1

Target | log2 fold change (erlotinib) | log2 fold change [1] | log2 fold change [2] | log2 fold change [3] | log2 fold change [4] | log2 fold change [5] | log2 fold change [6] | log2 fold change [7] | log2 fold change [8] | log2 fold change [9] | log2 fold change (IRAK-1-4 Inhibitor I) | log2 fold change (ibrutinib) | log2 fold change [10] | log2 fold change (ralimetinib) | log2 fold change [11] | log2 fold change [12] | log2 fold change [13] | log2 fold change (pinometostat) | log2 fold change [14] | log2 fold change [15]
TK1 (UniProt P04183) | inactive: -0.029 | inactive: 0.004 | inactive: 0.044 | inactive: 0.017 | inactive: -0.02 | inactive: -0.012 | inactive: -0.03 | inactive: -0.011 | inactive: -0.028 | inactive: 0.046 | inactive: 0.037 | inactive: 0.025 | inactive: 0.003 | inactive: -0.048 | inactive: -0.016 | inactive: 0.059 | inactive: -0.001 | inactive: -0.013 | inactive: -0.01 | –
TECR (UniProt Q9NZ01) | inactive: -0.02 | inactive: 0.042 | inactive: 0.036 | inactive: -0.059 | inactive: 0.018 | inactive: 0.024 | inactive: 0.067 | inactive: -0.059 | inactive: 0.072 | inactive: 0.045 | inactive: 0.04 | inactive: -0.059 | inactive: 0 | inactive: -0.061 | inactive: -0.107 | active: -0.458 | inactive: 0.009 | inactive: 0.024 | inactive: 0.036 | –
TIMM29 (UniProt Q9BSF4) | inactive: 0.028 | inactive: 0.042 | inactive: 0.049 | inactive: -0.025 | inactive: 0.064 | inactive: 0.018 | inactive: -0.035 | inactive: -0.024 | inactive: 0.037 | inactive: 0.011 | inactive: -0.202 | inactive: 0.024 | inactive: -0.014 | inactive: -0.101 | inactive: 0.008 | inactive: 0.071 | inactive: -0.031 | active: 0.444 | inactive: -0.052 | –
TFCP2 (UniProt Q12800) | inactive: 0.078 | – | inactive: -0.163 | inactive: -0.036 | – | inactive: 0.003 | inactive: 0.048 | – | – | – | inactive: -0.033 | inactive: 0.028 | – | inactive: 0.149 | inactive: 0.084 | inactive: -0.408 | inactive: 0.081 | inactive: 0.242 | – | inactive: -0.02
TEX2 isoform 2 (UniProt Q8IWB9) | inactive: 0.074 | inactive: -0.032 | inactive: -0.026 | inactive: 0.002 | inactive: 0.063 | inactive: 0.084 | inactive: 0.07 | inactive: 0.011 | inactive: -0.076 | inactive: 0.037 | inactive: -0.127 | inactive: -0.09 | inactive: -0.172 | inactive: -0.024 | inactive: 0.079 | inactive: 0.155 | inactive: 0.091 | inactive: 0.115 | inactive: 0.064 | –
TJP2 isoform 7 (UniProt Q9UDY2) | inactive: 0.116 | inactive: 0.06 | inactive: -0.042 | inactive: 0.006 | inactive: 0.029 | inactive: -0.201 | inactive: 0.008 | inactive: -0.006 | inactive: -0.08 | inactive: 0.001 | inactive: 0.004 | inactive: -0.004 | active: -0.437 | inactive: 0.032 | inactive: -0.061 | inactive: -0.107 | inactive: 0.068 | inactive: 0.003 | inactive: 0.05 | –
TBC1D20 isoform 3 (UniProt Q96BZ9) | inactive: 0.022 | inactive: 0.195 | inactive: 0.094 | inactive: 0.083 | inactive: 0.047 | inactive: -0.015 | inactive: -0.048 | inactive: -0.048 | – | – | inactive: 0.02 | inactive: 0.004 | inactive: -0.124 | inactive: -0.104 | inactive: -0.087 | inactive: -0.099 | inactive: -0.017 | inactive: 0 | – | –
TIMM10 (UniProt P62072) | inactive: -0.109 | inactive: -0.021 | inactive: 0.137 | inactive: -0.011 | inactive: 0.044 | inactive: 0.051 | inactive: 0.072 | inactive: 0.029 | inactive: -0.014 | inactive: -0.016 | inactive: -0.06 | inactive: 0.024 | inactive: -0.041 | inactive: -0.145 | inactive: -0.026 | inactive: 0.047 | inactive: -0.09 | inactive: -0.078 | inactive: 0.174 | –
TFR2 (UniProt Q9UP52) | inactive: 0.009 | inactive: -0.019 | inactive: -0.012 | inactive: -0.015 | inactive: 0.018 | inactive: 0.016 | inactive: -0.039 | inactive: -0.023 | inactive: 0.03 | inactive: 0.018 | inactive: 0.018 | inactive: 0.008 | inactive: -0.011 | inactive: -0.018 | inactive: 0.037 | inactive: -0.146 | inactive: 0.02 | inactive: 0.02 | inactive: -0.128 | –
TJP1 (UniProt Q07157) | inactive: 0.095 | inactive: 0.072 | inactive: 0.022 | inactive: -0.015 | inactive: 0.013 | inactive: -0.135 | inactive: 0.003 | inactive: -0.029 | inactive: -0.03 | inactive: -0.035 | inactive: -0.033 | inactive: 0.03 | active: -0.443 | inactive: 0.028 | inactive: -0.02 | inactive: -0.003 | inactive: 0.014 | inactive: 0.037 | inactive: 0.034 | –
TIPIN (UniProt Q9BVW5) | inactive: -0.051 | inactive: 0.003 | inactive: 0.022 | inactive: 0.012 | inactive: 0.008 | inactive: 0.097 | – | inactive: -0.125 | inactive: -0.004 | inactive: -0.041 | inactive: 0.024 | inactive: 0.027 | inactive: -0.017 | – | inactive: 0.011 | inactive: 0.007 | – | inactive: -0.001 | inactive: -0.082 | inactive: 0.011
TBC1D17 (UniProt Q9HA65) | inactive: 0.111 | inactive: 0.018 | – | inactive: -0.026 | inactive: -0.017 | inactive: -0.064 | inactive: -0.035 | inactive: 0.005 | inactive: -0.049 | inactive: 0.088 | – | inactive: -0.046 | inactive: -0.041 | inactive: 0.04 | – | inactive: -0.284 | inactive: 0.042 | – | inactive: 0.142 | inactive: -0.052
TESMIN (UniProt Q9Y4I5) | – | – | – | – | – | – | – | – | – | – | – | – | – | – | – | – | – | – | – | inactive: 0.008
TIFA (UniProt Q96CG3) | inactive: -0.065 | – | inactive: 0.013 | inactive: -0.006 | – | – | – | – | – | – | inactive: 0.119 | – | – | – | inactive: 0.026 | inactive: -0.069 | – | inactive: -0.059 | – | –
TFAP4 (UniProt Q01664) | – | – | – | – | – | inactive: -0.103 | inactive: -0.026 | – | inactive: 0.053 | inactive: 0.008 | inactive: 0.075 | inactive: 0.026 | – | inactive: 0.037 | – | – | inactive: 0.102 | inactive: 0.008 | inactive: -0.064 | inactive: 0.028
THEMIS2 (UniProt Q5TEJ8) | – | – | inactive: 0.082 | – | – | – | inactive: 0.011 | – | inactive: -0.109 | inactive: -0.075 | inactive: 0.01 | – | – | inactive: 0.122 | inactive: 0.014 | – | inactive: 0.123 | inactive: 0.077 | inactive: 0.101 | inactive: -0.138
TDP1 (UniProt Q9NUW8) | inactive: 0.141 | – | – | – | – | – | – | – | – | – | – | – | – | – | – | inactive: 0.156 | – | – | – | –
TC2N (UniProt Q8N9U0) | – | inactive: 0.038 | – | – | inactive: 0.362 | – | inactive: -0.021 | inactive: 0.054 | inactive: 0.042 | inactive: -0.004 | – | – | inactive: -0.486 | inactive: -0.036 | – | – | inactive: 0.028 | – | inactive: 0.014 | –

Part of the list above, tab-delimited.
Target	log2 fold change (erlotinib)	log2 fold change [1]	log2 fold change [2]	log2 fold change [3]	log2 fold change [4]	log2 fold change [5]	log2 fold change [6]	log2 fold change [7]	log2 fold change [8]	log2 fold change [9]	log2 fold change (IRAK-1-4 Inhibitor I)	log2 fold change (ibrutinib)	log2 fold change [10]	log2 fold change (ralimetinib)	log2 fold change [11]	log2 fold change [12]	log2 fold change [13]	log2 fold change (pinometostat)	log2 fold change [14]	log2 fold change [15]
TFCP2 (UniProt Q12800)	inactive: 0.078	–	inactive: -0.163	inactive: -0.036	–	inactive: 0.003	inactive: 0.048	–	–	–	inactive: -0.033	inactive: 0.028	–	inactive: 0.149	inactive: 0.084	inactive: -0.408	inactive: 0.081	inactive: 0.242	–	inactive: -0.02
TBC1D20 isoform 3 (UniProt Q96BZ9)	inactive: 0.022	inactive: 0.195	inactive: 0.094	inactive: 0.083	inactive: 0.047	inactive: -0.015	inactive: -0.048	inactive: -0.048	–	–	inactive: 0.02	inactive: 0.004	inactive: -0.124	inactive: -0.104	inactive: -0.087	inactive: -0.099	inactive: -0.017	inactive: 0	–	–
TJP1 (UniProt Q07157)	inactive: 0.095	inactive: 0.072	inactive: 0.022	inactive: -0.015	inactive: 0.013	inactive: -0.135	inactive: 0.003	inactive: -0.029	inactive: -0.03	inactive: -0.035	inactive: -0.033	inactive: 0.03	active: -0.443	inactive: 0.028	inactive: -0.02	inactive: -0.003	inactive: 0.014	inactive: 0.037	inactive: 0.034	–
TESMIN (UniProt Q9Y4I5)	–	–	–	–	–	–	–	–	–	–	–	–	–	–	–	–	–	–	–	inactive: 0.008
THEMIS2 (UniProt Q5TEJ8)	–	–	inactive: 0.082	–	–	–	inactive: 0.011	–	inactive: -0.109	inactive: -0.075	inactive: 0.01	–	–	inactive: 0.122	inactive: 0.014	–	inactive: 0.123	inactive: 0.077	inactive: 0.101	inactive: -0.138
